Data published in PubChem BioAssay AID540303 (National Center for Advancing Translational Sciences (NCATS), 2011).
In all, about 330,000 compounds went through this assay and about 1,000 (0.3%) were called active. Inconclusive results, whose numbers are uncertain, are shown with a selection of clear calls. The call rests on the fitted dose curve; in most records, active means well fitted inhibition curve with a large enough effect; inconclusive means small, poorly fitted or top-dose-only effect; inactive means no such curve, though single readings can be large or run the other way; tested in mouse RAW 264.7 cells. Where the call is inconclusive, the potency comes from a doubtful curve fit.
Potency means the concentration at half of the fitted maximal effect.

Assay: qHTS for Inhibitors of Cell Surface uPA Generation; further: nearly all actives have a fitted effect of over 55% in size
Details: cell surface uPA generation assay; series mostly up to 38.3 µM
Method in brief: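 ATP-Lite luminescence in RAW 264.7 cells after 24 h of exposure to compound, tested up to 38.3 uM final in 1:5 steps. Raised ATP reflects inhibition of uPA-dependent LF delivery to the cytoplasm.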
In the case of O=C(NCc1ccccc1)C1c2ccccc2Oc2ccccc21, the Potency was inconclusive: 5.01 µM [inhibitor, partial curve, poor fit].
In the case of CCO[C@@H]1OC(C(=O)NCc2nc3ccccc3[nH]2)=C[C@H](C(C)(C)C)[C@H]1CCCO, the Potency was inconclusive: 2.24 µM [inhibitor, full curve, poor fit].
With CC(=O)Nc1ccc2nc(-c3ccncc3)[nH]c2c1 the Potency was “inactive”.
For CC(C)c1cc(C(=O)N/N=C/C(Br)=C/c2ccccc2)n[nH]1, the Potency was inconclusive: 1 µM [inhibitor, partial curve, poor fit].
In the case of COc1cccc(CNCCO)c1OCc1ccc(Cl)cc1, the Potency was “inactive”.
With COc1cc(SC)ccc1C(=O)Nc1ccc(Br)cn1 the Potency was inconclusive: 1 µM [inhibitor, full curve, poor fit].
With CSc1ccccc1C(=O)C1CCCN(C(=O)c2ccc(N3CCOCC3)cc2)C1 (configuration not stated) the Potency was “inactive”.
In the case of Cc1nc(C(C)N(C)Cc2nc(-c3ccc4c(c3)OCO4)no2)c(C)s1 (configuration not stated), the Potency was “inactive”.
With O=C(Nc1cccc(-c2csc(Nc3ccc(Cl)cc3)n2)c1)c1ccccc1 the Potency was inconclusive: 12.6 µM [inhibitor, single point].
In the case of Cc1cc(NC(=O)CN2C(=O)NC(CC(C)C)C2=O)no1 (configuration not stated), the Potency was inconclusive: 0.562 µM [inhibitor, partial curve, poor fit].
In the case of Cc1ccc(OCC(=O)N/N=C/c2ccc([N+](=O)[O-])o2)cc1, the Potency was inconclusive: 7.08 µM [inhibitor, single point].
In the case of Cc1ccc(C(=O)CN2C(=O)C(C)Oc3ccccc32)cc1 (configuration not stated), the Potency was inconclusive: 8.91 µM [inhibitor, single point].
In the case of Cc1sc2nc(CN3CCCC3)nc(N3CCN(S(=O)(=O)c4cccc(F)c4)CC3)c2c1C, the Potency was inconclusive: 6.31 µM [inhibitor, single point].
For Cc1ccc(C(=O)c2c3ccc([N+](=O)[O-])cc3[n+]([O-])n2CCCC(N)=O)cc1, the Potency was inconclusive: 3.55 µM [inhibitor, partial curve, poor fit].
For Cc1ccc(S(=O)(=O)Nc2c(C)n(C)n(-c3ccccc3)c2=O)cc1C(=O)OC(C)C(=O)N(C)c1ccccc1 (configuration not stated), the Potency was “inactive”.
With CC[C@]12c3[nH]c4ccc(Cl)cc4c3CCN1C(=O)[C@@H](CC(=O)NCCC1=CCCCC1)C[C@@H]2C(=O)N1CCN(C(=O)c2ccco2)CC1 the Potency was inconclusive: 28.2 µM [inhibitor, single point].
In the case of COc1ccccc1C(=O)NNC(=O)c1ccc(Cl)cc1, the Potency was inconclusive: 1.41 µM [inhibitor, partial curve, poor fit].
In the case of NC(=O)N/N=C/c1ccc([N+](=O)[O-])o1, the Potency was inconclusive: 11.2 µM [inhibitor, single point].
For COc1ccc(N(C(C)C(=O)N(C)Cc2ccccc2)S(C)(=O)=O)cc1 (configuration not stated), the Potency was inconclusive: 28.2 µM [inhibitor, single point].
In the case of Cn1sc(NC(=O)c2cccc(Cl)c2)nc1=O, the Potency was “inactive”.
For CCc1ccc(-c2ccc3nnc(SC)n3n2)cc1, the Potency was inconclusive: 6.31 µM [inhibitor, partial curve, poor fit].
For O=C(/C(=C/c1cccnc1)n1ccnc1)c1ccc(Cl)cc1Cl, the Potency was “inactive”.
In the case of O=C(CSc1nc2ccccc2o1)Nc1nc2c(s1)CCCC2, the Potency was inconclusive: 11.2 µM [inhibitor, single point].
For O=C(CCOc1ccccc1)Nc1ccccc1[N+](=O)[O-], the Potency was inconclusive: 1 µM [inhibitor, full curve].
With COc1ccccc1CCC(=O)Nc1ccc(OC)c(S(=O)(=O)N2CCCCC2)c1 the Potency was inconclusive: 0.447 µM [inhibitor, partial curve, poor fit].
In the case of O=C1NCCN/C1=C\C(=O)c1ccc(Br)cc1, the Potency was inconclusive: 12.6 µM [inhibitor, single point].
For CN(CCC#N)c1ccc(/C=C(\C#N)c2ccccn2)cc1, the Potency was active: 2.51 µM.
In the case of Cc1nc(Nc2cc(F)ccc2C)c2nnn(Cc3ccccc3)c2n1, the Potency was “inactive”.
With COCCCNC(=O)c1ccccc1NS(C)(=O)=O the Potency was “inactive”.
For OC12CCCCC1C(c1ccc3c(c1)OCO3)N(Cc1ccccc1F)CC2 (configuration not stated), the Potency was “inactive”.
With CN(CC(=O)Nc1ccc(Cl)c(C(F)(F)F)c1)C(=O)CCN1C(=O)C2CC=CCC2C1=O (configuration not stated) the Potency was inconclusive: 7.08 µM [inhibitor, partial curve, poor fit].
With COc1ccc2oc(C(=O)OC(C)C(=O)Nc3ccc(N4CCOCC4)cc3)c(C)c2c1 (configuration not stated) the Potency was inconclusive: 10 µM [inhibitor, single point].
With CCN1C(=O)[C@H]2[C@@H](c3ccc(-c4cccc(Cl)c4)cc3)N[C@@](Cc3ccccc3)(C(=O)OC)[C@H]2C1=O the Potency was inconclusive: 12.6 µM [inhibitor, partial curve, poor fit].
With CN(CCc1ccccc1)C(=O)c1ccc(NC(=O)Cc2ccc(NC(=O)C3CCCN(C(=O)CCc4ccccc4)C3)cc2)cc1 (configuration not stated) the Potency was inconclusive: 28.2 µM [inhibitor, single point].
With COc1ccccc1N1CCN(CC(=O)Nc2c(C)n(C)n(-c3ccccc3)c2=O)CC1 the Potency was “inactive”.
In the case of COc1ccc(CNC(=O)C2CC(c3ccccc3[N+](=O)[O-])=NO2)cc1 (configuration not stated), the Potency was inconclusive: 11.2 µM [inhibitor, single point].
For CCN1CCS/C1=C\C=C\C1=[N+](CC)CCS1, the Potency was inconclusive: 0.794 µM [inhibitor, full curve, poor fit].
For Cc1ccccc1C(=O)N/N=C/c1ccc([N+](=O)[O-])s1, the Potency was inconclusive: 10 µM [inhibitor, partial curve, poor fit].
For CCOC(=O)C1=C(c2ccccc2)NC(SCC(=O)Nc2ccc(C)cc2)=C(C#N)C1c1ccco1 (configuration not stated), the Potency was “inactive”.
In the case of CCOC(=O)CSC1=C(C#N)C(c2ccccc2F)C(C(C)=O)=C(C)N1 (configuration not stated), the Potency was “inactive”.
For O=Nc1c(-c2c(O)[nH]c3cc(Br)ccc23)[nH]c2ccccc12, the Potency was inconclusive: 12.6 µM [inhibitor, single point].
With Cn1cc(CN2CCCC(C(=O)Nc3ccc(-c4cccc(F)c4)cc3)C2)cn1 (configuration not stated) the Potency was active: 8.91 µM.
For Cc1ccc(C(=O)NCC(=O)OCC(=O)Nc2ccc(Cl)cn2)cc1, the Potency was inconclusive: 11.2 µM [inhibitor, single point].
For Clc1ccc(CSc2nc3ccncc3[nH]2)cc1, the Potency was active: 0.447 µM.
In the case of COc1cccc(CNc2ccc3c(c2)nc(C)n3C)c1OC, the Potency was inconclusive: 10 µM [inhibitor, partial curve, poor fit].
For COc1cc(OC)cc(C(=O)NC(C(=O)NNC(=O)c2cc(Cl)ccc2OC)C(C)C)c1 (configuration not stated), the Potency was inconclusive: 6.31 µM [inhibitor, partial curve].
For Cc1ccccc1S(=O)(=O)Cc1ccc(C(=O)NCCCN2CCCC2)o1, the Potency was inconclusive: 3.16 µM [inhibitor, partial curve, poor fit].
In the case of O=C1c2ccccc2-n2c1nc1ccccc1c2=O, the Potency was inconclusive: 2.51 µM [inhibitor, full curve, poor fit].
In the case of O=C(NCc1cccc(C(F)(F)F)c1)C1CC(c2c(Cl)cccc2Cl)=NO1 (configuration not stated), the Potency was inconclusive: 10 µM [inhibitor, single point].
In the case of O=C(Nc1ccc(S(=O)(=O)NC2=NCCCCC2)cc1)c1ccc([N+](=O)[O-])s1, the Potency was active: 10 µM.
With COc1ccc(Cc2nnc(SCC(=O)c3ccccc3)o2)cc1 the Potency was “inactive”.
In the case of Clc1ccc(N/N=C/c2ccncc2)cc1Cl, the Potency was “inactive”.
In the case of CCOc1ccc(/C=N/NC(=O)c2cc3ccccc3cc2OC)cc1, the Potency was inconclusive: 25.1 µM [inhibitor, single point].
With CS(=O)(=O)c1ccccc1-c1nnc(NC(=O)CCS(=O)(=O)c2ccc(Cl)cc2)o1 the Potency was inconclusive: 8.91 µM [inhibitor, single point].
For O=C(NCCN1CCOCC1)/C(=C/c1ccc(F)cc1)NC(=O)c1ccccc1, the Potency was inconclusive: 3.16 µM [inhibitor, single point].
In the case of O=C(CSc1cccc[n+]1[O-])c1ccccc1Br, the Potency was “inactive”.
In the case of Cc1nc2nc(CNC(=O)OC(C)(C)C)nn2c(C)c1CCC(=O)Nc1ccc2c(c1)OCO2, the Potency was “inactive”.
With COc1ccc(C(=O)N/N=C/c2ccc3cccc(O)c3n2)cc1 the Potency was “inactive”.
In the case of Cc1cc2nc(-c3cccnc3SCC(=O)NC(C)C)[nH]c2cc1C, the Potency was inconclusive: 6.31 µM [inhibitor, partial curve, poor fit].
For Cc1ccc(C)c(C(=O)CCC(=O)Nc2ccc(N3CCN(C)CC3)cc2C)c1, the Potency was inconclusive: 20 µM [inhibitor, single point].
In the case of Nc1n[nH]c2cccc(Cl)c12, the Potency was inconclusive: 15.8 µM [inhibitor, partial curve, poor fit].
For Fc1ccccc1/C=C/c1ccc2ccccc2n1, the Potency was active: 11.2 µM.
In the case of COc1cccc(CN2CC(C(=O)N(C)Cc3nc4ccc(F)cc4[nH]3)CCC2=O)c1 (configuration not stated), the Potency was inconclusive: 11.2 µM [inhibitor, partial curve, poor fit].
For O=C(CN1C(=O)NC2(CCCCCC2)C1=O)N1CCCCC1, the Potency was inconclusive: 0.355 µM [inhibitor, full curve, poor fit].
For Cc1cc(C(=O)NC2CCCc3c2cnn3-c2cccc(C)c2C)no1 (configuration not stated), the Potency was inconclusive: 1.41 µM [inhibitor, partial curve, poor fit].
For CCOc1ccc(/C=N/OCC(=O)Nc2ccc3c(c2)OCO3)cc1, the Potency was inconclusive: 1.26 µM [inhibitor, partial curve, poor fit].
For COc1ccccc1NC(=O)N1CCCC1C(=O)Nc1ccc2c(c1)OCCO2 (configuration not stated), the Potency was inconclusive: 14.1 µM [inhibitor, partial curve, poor fit].
